From EP3611183B1 (Seoul National University R & DB Foundation, priority 2017, dated 2023)
Plain letter strings leave the end groups untold.

Test: peptide synthesis
Settings: whole synthesis, one disulfide bridge, sequence written open

Sequence: CWPSALPTC
- outcome: peptide A which failed to synthesize in a cyclic form
